The values that follow come from publication PMC13082787.

No constants are given. Whether binding was seen depends on the method and setting. Sequences can lack the tags named with a protein.

The target in the assay is T1, Soluble YbjP (D28-R171) with an N-terminal His-tag (E. coli) (UniProt P75818).
T1 sequence: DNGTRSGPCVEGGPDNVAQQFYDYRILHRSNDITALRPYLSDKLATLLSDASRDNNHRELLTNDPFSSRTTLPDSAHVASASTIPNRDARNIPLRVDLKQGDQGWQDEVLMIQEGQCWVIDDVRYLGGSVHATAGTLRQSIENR
Briefly: pull-down; in vitro affinity pull-down with purified proteins; which partner was immobilised in the tests with Pal is not told; both purified.

B1: Pal (peptidoglycan-associated protein) lipoprotein (protein, UniProt P0A912 22-173)
chain: CSSNKNASNDGSEGMLGAGTGMDANGGNGNMSSEEQARLQMQQLQQNNIVYFDLDKYDIRSDFAQMLDAHANFLRSNPSYKVTVEGHADERGTPEYNISLGERRANAVKMYLQGKGVSADQISIVSYGKEKPAVLGHDEAAYSKNRRAVLVY
Turning to B1, the binding result was “no binding”.
